Results deposited as PubChem BioAssay AID504764 (Drosophila RNAi Screening Center, 2011)
Aim: 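Genes whose knock-down alters Notch-dependent transcription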 (primary screen). Cell system: Drosophila Kc167 cells. Reagent: long dsRNA against Drosophila genes. Time to read-out: about 5 days (4 days dsRNA, then 24 h after transfection). Challenge: transfection of constitutively active membrane-tethered Notch lacking the extracellular domain, read 24 h later. Read-out: 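Light from a Notch-responsive E(spl)m3 luciferase reporter under active Notch, with control-promoter and no-Notch reporter wells to normalise; raw counts from paired wells a and b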. Direction: induced reporter light, run 1, well a and induced reporter light, run 1, well b: higher = more light from the Notch target reporter with active Notch; control promoter light, run 1, well a and control promoter light, run 1, well b: higher = more light from the viral control promoter (cell number, transfection, viability); uninduced reporter light, run 1, well a: higher = more light from the Notch target reporter without active Notch. Active means: 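Wells with low control signal or poorly matching duplicates excluded; duplicates averaged; per source plate, z beyond ±2 for induced/control log2 ratio or beyond ±1.8 for induced/uninduced marks a hit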. Meaning of the calls: active = modifier hit (raised or lowered Notch signal); inactive = not a hit.
The deposit covers about 22,000 reagents; below is a random part of those that have a named target and a result. Over the whole deposit, 403 (1.9%) got an active call. 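Unnormalised raw counts per well; ratio z-scores behind the hit calls and whether each hit raises or lowers signal are not deposited.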 Not stated in the record: the amount of reagent.

Ugt37A1 (UDP-glycosyltransferase family 37 member A1) [DRSC02114]
- induced reporter light, run 1, well a: 59560
- induced reporter light, run 1, well b: 45065
- control promoter light, run 1, well a: 54800
- control promoter light, run 1, well b: 53940
- uninduced reporter light, run 1, well a: 2942
- outcome: inactive

CG15452 [DRSC20523]
- induced reporter light, run 1, well a: 79630
- induced reporter light, run 1, well b: 1.11e5
- control promoter light, run 1, well a: 1.28e5
- control promoter light, run 1, well b: 1.34e5
- uninduced reporter light, run 1, well a: 12050
- outcome: inactive

FipoQ (F-box involved in polyQ pathogenesis) [DRSC15413]
- induced reporter light, run 1, well a: 1.55e5
- induced reporter light, run 1, well b: 1.64e5
- control promoter light, run 1, well a: 1.48e5
- control promoter light, run 1, well b: 1.54e5
- uninduced reporter light, run 1, well a: 11045
- outcome: inactive

CG31883 [DRSC02561]
- induced reporter light, run 1, well a: 2.43e5
- induced reporter light, run 1, well b: 2.51e5
- control promoter light, run 1, well a: 1.62e5
- control promoter light, run 1, well b: 2.03e5
- uninduced reporter light, run 1, well a: 20325
- outcome: inactive

CG3345 [DRSC00596]
- induced reporter light, run 1, well a: 1.66e5
- induced reporter light, run 1, well b: 1.73e5
- control promoter light, run 1, well a: 2.03e5
- control promoter light, run 1, well b: 2.06e5
- uninduced reporter light, run 1, well a: 15782
- outcome: inactive

Nap1 (Nucleosome assembly protein 1) [DRSC04626]
- induced reporter light, run 1, well a: 2.00e5
- induced reporter light, run 1, well b: 1.36e5
- control promoter light, run 1, well a: 1.22e5
- control promoter light, run 1, well b: 1.76e5
- uninduced reporter light, run 1, well a: 14350
- outcome: inactive

Amun [DRSC19847]
- induced reporter light, run 1, well a: 1.92e5
- induced reporter light, run 1, well b: 1.67e5
- control promoter light, run 1, well a: 3.00e5
- control promoter light, run 1, well b: 2.80e5
- uninduced reporter light, run 1, well a: 12945
- outcome: inactive

CG10435 [DRSC14246]
- induced reporter light, run 1, well a: 92215
- induced reporter light, run 1, well b: 89470
- control promoter light, run 1, well a: 64040
- control promoter light, run 1, well b: 52380
- uninduced reporter light, run 1, well a: 8225
- outcome: inactive

Pkd2 (Polycystic kidney disease 2) [DRSC02962]
- induced reporter light, run 1, well a: 1.92e5
- induced reporter light, run 1, well b: 2.17e5
- control promoter light, run 1, well a: 2.10e5
- control promoter light, run 1, well b: 1.94e5
- uninduced reporter light, run 1, well a: 18000
- outcome: inactive

beat-Vc (beaten path Vc) [DRSC12927]
- induced reporter light, run 1, well a: 1.20e5
- induced reporter light, run 1, well b: 1.29e5
- control promoter light, run 1, well a: 1.80e5
- control promoter light, run 1, well b: 1.44e5
- uninduced reporter light, run 1, well a: 7890
- outcome: inactive

beat-Vc (beaten path Vc) [DRSC14849]
- induced reporter light, run 1, well a: 49820
- induced reporter light, run 1, well b: 57700
- control promoter light, run 1, well a: 59530
- control promoter light, run 1, well b: 46180
- uninduced reporter light, run 1, well a: 4392
- outcome: inactive

Doc3 (Dorsocross3) [DRSC10480]
- induced reporter light, run 1, well a: 90895
- induced reporter light, run 1, well b: 71560
- control promoter light, run 1, well a: 98335
- control promoter light, run 1, well b: 71220
- uninduced reporter light, run 1, well a: 5150
- outcome: inactive

2 consecutive records already listed, for reference:
Amun [DRSC19847]
- induced reporter light, run 1, well a: 1.92e5
- induced reporter light, run 1, well b: 1.67e5
- control promoter light, run 1, well a: 3.00e5
- control promoter light, run 1, well b: 2.80e5
- uninduced reporter light, run 1, well a: 12945
- outcome: inactive

CG10435 [DRSC14246]
- induced reporter light, run 1, well a: 92215
- induced reporter light, run 1, well b: 89470
- control promoter light, run 1, well a: 64040
- control promoter light, run 1, well b: 52380
- uninduced reporter light, run 1, well a: 8225
- outcome: inactive
